Results are given in words; binding and its absence hold for the method and conditions named. A result given as binding can be weak or reduced; the word gives no strength.
Biological target: recombinant Factor VIIa (rFVIIa)
Assay: ELISA; plate coated with 100 nM rFVIIa in PBST pH 7.4; blocked with 2% milk; His-tagged proteins 0.1-1000 nM, 1 hour, 25 °C; detected with HRP anti-6xHis; both purified

binding: binds
Binder: ALCDDPRVDRWYCQFVEG [E-76 peptide]

From publication PMC5118791
